# Measured values: patent US9377472B2, “Biological complex specific for Alzheimer's disease detection in vitro and use thereof” (Amoneta Diagnostics, priority 2012, dated 2016)
# Assays:
# red blood cells [1] = assay: Fluorescent probe A1 binding on purified RBC of TAS/TPM vs wild type mice, spectrofluorimeter spectral index, ROC; format: cell-based, mouse; conditions: ROC curve FIG. 3
# red blood cells [2] = assay: Fluorescent probe A1 binding on purified RBC of TAS/TPM vs wild type mice, flow cytometer, ROC; format: cell-based, mouse; conditions: ROC curve FIG. 4; for Sensitivity / Specificity: cut off 2%
substance,measurement,setting,value
A1: specific fluorescent probe consisting of Aβ1-42 labeled on lysine 16 with a Bodipy residue,Area under curve,red blood cells [1]; mice aged 4 months,55%
same,Sensitivity,red blood cells [1]; mice aged 4 months,50%
same,Specificity,red blood cells [1]; mice aged 4 months,70%
same,Area under curve,red blood cells [1]; mice aged 14 months,85%
same,Sensitivity,red blood cells [1]; mice aged 14 months,85%
same,Specificity,red blood cells [1]; mice aged 14 months,73%
same,Area under curve,red blood cells [2]; mice 9-12 months,54.7%
same,Sensitivity,red blood cells [2]; mice 9-12 months,71.4%
same,Specificity,red blood cells [2]; mice 9-12 months,52.3%
same,Area under curve,red blood cells [2]; mice 19-22 months,67%
same,Sensitivity,red blood cells [2]; mice 19-22 months,64.3%
same,Specificity,red blood cells [2]; mice 19-22 months,83.3%
